Assay results as given in paper PMC10750274.
These are yes or no findings as the source states them, for the method shown. In cells and extracts the contact can be indirect. Some entries that bind do so weakly or less than the wild type.

Amino acid sequences for entries named in this document (tags omitted).
UniProt P05556: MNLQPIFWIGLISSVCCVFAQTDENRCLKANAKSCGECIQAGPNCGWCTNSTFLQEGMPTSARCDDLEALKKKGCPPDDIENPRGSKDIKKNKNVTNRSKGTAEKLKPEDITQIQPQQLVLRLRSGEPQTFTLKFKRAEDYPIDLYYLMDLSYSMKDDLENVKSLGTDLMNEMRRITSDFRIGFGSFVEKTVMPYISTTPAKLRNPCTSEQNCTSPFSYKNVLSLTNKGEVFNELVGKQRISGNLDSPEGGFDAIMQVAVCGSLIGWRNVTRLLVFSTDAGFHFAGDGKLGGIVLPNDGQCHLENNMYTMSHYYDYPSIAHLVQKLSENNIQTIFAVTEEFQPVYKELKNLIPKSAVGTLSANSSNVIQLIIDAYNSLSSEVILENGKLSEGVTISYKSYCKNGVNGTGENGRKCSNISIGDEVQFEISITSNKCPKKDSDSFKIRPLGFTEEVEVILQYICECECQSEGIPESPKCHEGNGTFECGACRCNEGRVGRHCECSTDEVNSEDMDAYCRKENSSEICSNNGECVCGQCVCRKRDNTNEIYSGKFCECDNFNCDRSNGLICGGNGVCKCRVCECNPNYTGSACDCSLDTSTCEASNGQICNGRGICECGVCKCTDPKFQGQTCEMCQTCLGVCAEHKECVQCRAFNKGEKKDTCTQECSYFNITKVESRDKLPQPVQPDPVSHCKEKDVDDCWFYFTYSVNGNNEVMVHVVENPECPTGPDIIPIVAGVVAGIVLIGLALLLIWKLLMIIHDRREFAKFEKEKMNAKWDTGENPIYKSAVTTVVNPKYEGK

Target: integrin β1 (human (endogenous in AN3CA)) (UniProt P05556)
Assay: co-IP; AN3CA cells treated with 150 ng/ml rhNTN4 for 1 hour; whole cell lysate (1 mg total protein) immunoprecipitated with anti-His or anti-ITGB1 antibody (2 μg) or normal rabbit IgG overnight at 4 °C, protein G Mag Sepharose beads; Western blot for rhNTN4 and integrin β1; only the binder purified

- binding: binds
B1: Recombinant human NTN4 protein (netrin4) (ligand, UniProt Q9HB63 19-628)
chain: GLSGVAGVSSRCEKACNPRMGNLALGRKLWADTTCGQNATELYCFYSENTDLTCRQPKCDKCNAAYPHLAHLPSAMADSSFRFPRTWWQSAEDVHREKIQLDLEAEFYFTHLIVMFKSPRPAAMVLDRSQDFGKTWKPYKYFATNCSATFGLEDDVVKKGAICTSKYSSPFPCTGGEVIFKALSPPYDTENPYSAKVQEQLKITNLRVQLLKRQSCPCQRNDLNEEPQHFTHYAIYDFIVKGSCFCNGHADQCIPVHGFRPVKAPGTFHMVHGKCMCKHNTAGSHCQHCAPLYNDRPWEAADGKTGAPNECRTCKCNGHADTCHFDVNVWEASGNRSGGVCDDCQHNTEGQYCQRCKPGFYRDLRRPFSAPDACKPCSCHPVGSAVLPANSVTFCDPSNGDCPCKPGVAGRRCDRCMVGYWGFGDYGCRPCDCAGSCDPITGDCISSHTDIDWYHEVPDFRPVHNKSEPAWEWEDAQGFSALLHSGKCECKEQTLGNAKAFCGMKYSYVLKIKILSAHDKGTHVEVNVKIKKVLKSTKLKIFRGKRTLYPESWTDRGCTCPILNPGLEYLVAGHEDIRTGKLIVNMKSFVQHWKPSLGRKVMDILKRECK
